In doi:10.1101/2024.11.04.621823:
No constants are given. Whether binding was seen depends on the method and setting. A result given as binding can be weak or reduced; the word gives no strength.

Biological target: HP1α chromoshadow domain (CSD; aa 110-191)
Test: ITC

binding, binds:
YQADIKEARREVEVKLTPLIL [hLBR (aa 103-122 plus N-terminal Y)], LHNHGIQINSCSVRLVDIKKY [hSP100 (aa 279-298 plus C-terminal Y)], ILFKGKVPMVVLQDILAVR [hCaf1 p150 (aa 231-249)]
